Assay results taken from PubChem BioAssay AID1487 (National Center for Advancing Translational Sciences (NCATS), 2009).
Values joined by “and” are separate entries in the source; they are usually repeats but may differ in a detail not shown here. Identical values can stand only once. This is one part of the list. These are further read-outs of the screen, such as a control signal, another cell line or another target. No call is given for them. Compounds called inactive in the main read-out are mostly missing here. Words in brackets tell the shape of the fitted curve; partial curves, single points and poor fits give uncertain potencies.

Assay: qHTS Assay for Modulators of Lamin A Splicing
Settings: HeLa LMNA splicing GFP/RFP minigene ratio, 48 h
Summary of the method: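 Read-out is the ratio of GFP to DsRed2 object intensity, acquired by 488 nm laser-scanning cytometry on HeLa lamin A-EGFP minigene reporter cells. Compound incubation 48 hrs at 37 °C in Opti-MEM with 2% FBS; DMSO 0.5% final.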

[1] = measured here: RFP viability control channel
[2] = measured here: GFP splicing reporter channel

| SMILES | AC50 [1] | AC50 [2] |
| --- | --- | --- |
| COC(=O)N/N=C/c1cc(C)n(-c2ccccc2)c1C | 0.01 µM [rising, full curve, poor fit] |  |
| Cc1cc(C)n(-c2nc3cc(Cl)ccc3nc2N2CCN(c3ccccc3F)CC2)n1 |  | 0.0398 µM [falling, full curve, poor fit] |
| COc1ccc(/C=C2\SC(=O)N(CCNC(=O)Cc3coc4cc(C)ccc34)C2=O)cc1OC |  | 22.4 µM [rising, single point] |
| Cc1ccc(NC(=O)CSc2nccn2Cc2ccccc2)cc1C | 17.8 µM [rising, partial curve, poor fit] | 14.1 µM [rising, partial curve, poor fit] |
| COc1cnc(-c2ccccn2)nc1Oc1ccc(Cl)c2ccccc12 | 20 µM [falling, single point] | 12.6 µM [falling, single point] |
| COc1ccc(CN(C2CCCC2)S(=O)(=O)c2ccc(-n3cnnn3)c(OC)c2)cc1OC | 31.6 µM [rising, single point] |  |
| CCOc1cc(-c2ccc(OC(=O)c3ccccc3)c(OC)c2)cc(=O)c2c(C)oc(C)c12 | 22.4 µM [falling, single point] | 35.5 µM [falling, single point] |
| COc1ccc(C)cc1Nc1ncnc2c1c(-c1ccccc1)cn2-c1ccc(C)cc1 |  | 5.62 µM [falling, single point] |
| CCN1CCC2(CC1)N=C(c1ccc(F)cc1)C(=S)N2C(=O)c1ccc(C(C)(C)C)cc1 | 14.1 µM [rising, single point] | 12.6 µM [rising, single point] |
| Cc1cccc(N2C(=O)SC(SC(=Nc3ccccc3)Nc3ccccc3)C2=O)c1 (configuration not stated) | 20 µM [rising, single point] | 12.6 µM [rising, single point] |
| Cc1ccccc1-c1ccc(C(=O)Nc2cccc(F)c2)o1 | 7.94 µM [rising, partial curve] |  |
| Cc1cc(C(=O)CSc2nnnn2-c2ccc(O)cc2)c(C)n1Cc1ccc2c(c1)OCO2 | 7.08 µM [rising, partial curve] |  |
| CCC(C)N1C(=O)/C(=C/c2c(NCCCOC(C)C)nc3c(C)cccn3c2=O)SC1=S (configuration not stated) | 10 µM [rising, single point] | 6.31 µM [rising, partial curve, poor fit] |
| O=c1[nH]c(=O)n([C@H]2C[C@H](O)[C@@H](CO)O2)cc1F | 4.47 nM [rising, full curve, poor fit] and 355 nM [rising, full curve] |  |
| CN(C)C(=S)SCC(=O)Nc1ccc(Cl)cc1Cl | 35.5 µM [rising, single point] | 35.5 µM [rising, single point] |
| CCOC(=O)c1c(NC(=S)Nc2cc([N+](=O)[O-])ccc2OC)sc2c1CCCCC2 | 35.5 µM [rising, partial curve, poor fit] |  |
| Cc1ccc(-n2nc3ccc(NC(=S)NC(=O)/C=C/c4ccco4)cc3n2)cc1 | 0.0501 µM [rising, full curve, poor fit] |  |
| CC(C)(C)NCC(O)CON=C1c2ccccc2-c2ccccc21 (configuration not stated) | 15.8 µM [rising, partial curve] |  |
| COCCNc1ncnc2nc[nH]c12 | 6.31 µM [falling, partial curve, poor fit] |  |
| Fc1ccc(Nc2ccnc(-c3ccoc3)n2)cc1 | 35.5 µM [falling, single point] | 20 µM [falling, partial curve, poor fit] |
| CCCCCCOC(=O)c1cccnc1 | 0.0447 µM [rising, full curve, poor fit] |  |
| Cc1nn(Cc2ccccc2Cl)c(C)c1C(=O)Nc1nnc(C2CC2)s1 |  | 2.24 µM [falling, full curve] |
| COC(=O)CCC(C)C1CCC2C3CC[C@H]4CC(O)CC[C@@]4(C)C3CC(O)[C@]12C (some centres not stated) | 35.5 µM [falling, single point] | 35.5 µM [falling, single point] |
| COc1ccc(C(c2nnnn2CC2CCCO2)N2CCN(c3cccc(C)c3C)CC2)cc1 (configuration not stated) | 17.8 µM [rising, partial curve] | 12.6 µM [rising, partial curve] |
| CC(=O)c1ccccc1OCCn1nnc(-c2ccc(C)cc2)n1 | 35.5 µM [rising, single point] |  |
| Cc1cc(Cl)ccc1OCC(=O)N1CC(C)CC(C)C1 (configuration not stated) | 15.8 µM [rising, single point] |  |
| O=C(Nc1ccc(S(=O)(=O)N2CCc3ccccc32)cc1)c1ccco1 | 12.6 µM [rising, partial curve] |  |

| SMILES | AC50 [1] | AC50 [2] |
| --- | --- | --- |
| CC(=O)/C(C#N)=C1\NC(=O)C(Cc2ccccc2)S1 (configuration not stated) | 7.08 µM [rising, full curve] |  |
| COc1ccccc1C(=O)Nc1ccc(C(=O)OCc2cc(=O)n3nc(C4CC4)sc3n2)cc1 |  | 0.0126 µM [rising, full curve, poor fit] |
| CC1=NN(C(N)=S)C(=O)C1N=Nc1cccc2ccccc12 (configuration not stated) | 3.55 µM [falling, single point] | 7.94 µM [rising, partial curve, poor fit] |
| Cc1nc([N+](=O)[O-])c(Sc2nc3ccccc3[nH]2)n1Cc1ccccc1 | 35.5 µM [falling, single point] | 11.2 µM [falling, partial curve, poor fit] |
| CC(C)CC(NC(N)=O)C(=O)Nc1ccc2c(c1)OCO2 (configuration not stated) | 1.26 µM [falling, full curve, poor fit] | 3.98 µM [falling, full curve] |
| CCCn1c(N)c(N(CCOC)C(=O)/C=C/c2cccc(Cl)c2)c(=O)[nH]c1=O |  | 0.794 µM [falling, full curve, poor fit] |
| COC(=O)c1ccc(CSc2nnc(NC(=O)C3CC(=O)N(Cc4ccc(C)cc4)C3)s2)cc1 (configuration not stated) | 35.5 µM [rising, single point] | 15.8 µM [rising, single point] |
| Cc1nn2c(C)c(C(=O)NC(C)(C)C)cnc2c1-c1ccc(F)cc1 | 0.0501 µM [falling, full curve, poor fit] | 0.141 µM [falling, full curve] |
| CCOC(=O)c1c(-c2ccc(C)cc2)csc1NC(=O)CCN1CC(C)OC(C)C1 (configuration not stated) | 31.6 µM [rising, single point] |  |
| Cc1cc(C)c2nc(Cl)c(CN(Cc3ccco3)C(=O)Nc3ccccc3C)cc2c1 | 7.94 µM [falling, single point] | 12.6 µM [falling, partial curve] |
| O=C(COC(=O)c1ccco1)NCc1ccc(Cl)cc1 | 6.31 µM [rising, single point] |  |
| O=C(/C=C/c1ccco1)NC(=S)NNC(=O)c1ccco1 | 35.5 µM [rising, single point] |  |
| O=C(N1CCCC1)C12CC3CC(C1)CC(C(=O)N1CCCC1)(C3)C2 | 1.78 µM [falling, partial curve] | 2.82 µM [falling, full curve] |
| Cn1nc(-c2ccccc2F)c2cc(C(=O)Nc3ccc4c(c3)OCCO4)sc21 | 25.1 µM [rising, partial curve] |  |
| CCCCNC(=O)c1cc2n(n1)CCCN(Cc1ccc(C)cc1)C2=O | 35.5 µM [falling, single point] | 35.5 µM [falling, single point] |
| CC(C)(C)NC(=O)COC(=O)c1ccccc1Nc1ccc(SC(F)F)cc1 | 4.47 µM [rising, full curve] |  |
| Cc1c(C(=O)OCC(=O)N2CC(C)OC(C)C2)oc2ccc(Br)cc12 (configuration not stated) | 14.1 µM [rising, single point] |  |
| COc1cc(CNC2CCCCC2OC)cc(OC)c1 (configuration not stated) | 0.00501 µM [falling, full curve, poor fit] | 0.0447 µM [falling, full curve, poor fit] |
| Cc1sc2ncnc(N/N=C/c3ccccc3O)c2c1C | 7.94 µM [rising, partial curve] |  |
| CC(OC(=O)Cn1c(C(F)(F)F)nc2ccccc21)C(N)=O (configuration not stated) | 0.00501 µM [falling, full curve, poor fit] | 0.00501 µM [falling, full curve, poor fit] |
| CC(C)Cn1c(N)c(C(=O)NCc2cccs2)c2nc3ccccc3nc21 | 25.1 µM [falling, partial curve] | 35.5 µM [falling, single point] |
| O=S(=O)(c1cc(Cl)ccc1Cl)N1CCN(Cc2ccc3c(c2)OCO3)CC1 | 35.5 µM [rising, single point] |  |
| COc1cc(C)c(/C=C/C(C)=C/C=C/C(C)=C/C(=O)O)c(C)c1C | 0.158 µM [rising, partial curve, poor fit] | 11.2 µM [falling, partial curve, poor fit] |
| CCCCCCCCCCCCCCCCCC(=O)OCC(O)CO (configuration not stated) |  | 0.00562 µM [falling, full curve, poor fit] |
| O=C(C1CC1)N1CCC(c2nc(-c3ccc(S(=O)(=O)NCC4CCCO4)cc3)no2)CC1 (configuration not stated) | 6.31 µM [rising, full curve] |  |
| CCOc1ccc(CCNC(=O)Cn2ccc3ccccc3c2=O)cc1OCC |  | 0.0794 µM [falling, full curve, poor fit] |
| CCNc1ncc2nc(-c3cn(C)c4ccccc34)c(=O)n(-c3ccccc3)c2n1 | 15.8 µM [falling, partial curve] | 10 µM [falling, partial curve] |
